At least one compound was matched to its structure with a doubt left.
Target: T1, MEKK3 (Homo sapiens, UniProt Q99759)
T1 construct: expressed in transfected cells; host or cells: HEK 293
T1 sequence (Q99759 1-626): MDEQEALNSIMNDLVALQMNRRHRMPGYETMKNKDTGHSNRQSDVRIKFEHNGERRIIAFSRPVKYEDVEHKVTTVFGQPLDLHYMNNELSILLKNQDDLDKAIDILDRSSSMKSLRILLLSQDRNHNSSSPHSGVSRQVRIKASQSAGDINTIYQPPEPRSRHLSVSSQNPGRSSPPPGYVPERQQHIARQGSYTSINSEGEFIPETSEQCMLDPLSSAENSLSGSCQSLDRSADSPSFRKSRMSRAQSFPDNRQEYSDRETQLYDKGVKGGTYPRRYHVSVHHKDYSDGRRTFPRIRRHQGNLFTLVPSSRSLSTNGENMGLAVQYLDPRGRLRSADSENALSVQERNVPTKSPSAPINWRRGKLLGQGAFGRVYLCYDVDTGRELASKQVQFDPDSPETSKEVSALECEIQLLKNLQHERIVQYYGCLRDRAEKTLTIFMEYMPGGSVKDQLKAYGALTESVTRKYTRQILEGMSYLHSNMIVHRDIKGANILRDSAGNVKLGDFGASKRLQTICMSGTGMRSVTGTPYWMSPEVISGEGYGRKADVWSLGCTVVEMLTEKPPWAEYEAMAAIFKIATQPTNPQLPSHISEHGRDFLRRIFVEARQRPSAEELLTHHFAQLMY
Experiment: MEKK3 mobility band shift on high-ratio acrylamide:bis-acrylamide SDS-PAGE of lysates from treated cells
Format: cell-based
Settings: MEKK3 expressed in treated HEK293 cells; data not shown

COC[C@H]1OC(=O)c2coc3c2[C@@]1(C)C1=C(C3=O)[C@@H]2CCC(=O)[C@@]2(C)C[C@H]1OC(C)=O [wortmannin]
MEKK3 band shift (mobility shift on SDS-PAGE): had no effect on mobility shift

Reference: patent US20090156466A1, “Characterization of a MEKK binding site and uses thereof” (priority 2007, published 2009)
